The target of assay [1] is His-tagged N-acetylglucosamine kinase (His-NAGK) (UniProt Q9UJ70). In words: pull-down; His pull-down on Ni-NTA magnetic silica resin from lysates (500 µg) of HEK293T cells transfected for 48 h; IP lysis buffer 25 mM Tris-HCl pH 7.4, 150 mM NaCl, 1 mM EDTA, 1% NP-40, 5% glycerol; Western blot. (In general: In western blotting, separated proteins are transferred to a membrane and probed.)

Protein sequences, listed by entry. Tags and fused reporters are not part of them.
UniProt Q9NP97: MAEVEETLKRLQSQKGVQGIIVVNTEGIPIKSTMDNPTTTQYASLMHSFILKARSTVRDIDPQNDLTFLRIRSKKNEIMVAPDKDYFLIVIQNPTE
UniProt P62628: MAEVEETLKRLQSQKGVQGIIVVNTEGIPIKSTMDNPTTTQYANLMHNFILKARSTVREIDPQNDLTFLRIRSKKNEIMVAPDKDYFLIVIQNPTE
UniProt P81799: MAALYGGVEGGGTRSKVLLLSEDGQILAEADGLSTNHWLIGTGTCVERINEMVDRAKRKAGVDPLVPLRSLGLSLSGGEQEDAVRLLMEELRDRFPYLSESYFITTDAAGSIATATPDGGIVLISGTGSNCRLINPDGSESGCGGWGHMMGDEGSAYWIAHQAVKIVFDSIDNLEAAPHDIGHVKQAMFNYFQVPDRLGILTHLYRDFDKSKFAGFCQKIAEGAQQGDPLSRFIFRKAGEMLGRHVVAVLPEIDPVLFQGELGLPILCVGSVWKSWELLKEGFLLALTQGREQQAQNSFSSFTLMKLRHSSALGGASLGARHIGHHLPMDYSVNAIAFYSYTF

The target of assay [2] is dynein light-chain roadblock type 1 (DYNLRB1), endogenous in human cells (human (endogenous in HEK293T and SK-MEL-31)) (UniProt Q9NP97). Briefly: proximity ligation; Duolink PLA on fixed SK-MEL-31 cells treated with DMSO, ciliobrevin D (80 µM for 6 h) or nocodazole (10 µM for 1 h).
Assay [3] has as its target dynein light-chain roadblock type 1 (DYNLRB1), endogenous in rat hippocampal neurons (rat (endogenous in primary hippocampal neurons)) (UniProt P62628). In words: proximity ligation; Duolink PLA on fixed primary rat hippocampal neurons, DIV 1/3/5 and DIV 12/16/21; negative control with a single primary antibody; for NAGK-SNRPN also at DIV 4 and DIV 14 after AAV overexpression or knockdown of NAGK and SNRPN.

No constants are given. Whether binding was seen depends on the method and setting. In cells and extracts the contact can be indirect. Some entries that bind do so weakly or less than the wild type.

As to “Myc-DDK-DYNLRB1 (from UniProt P62628 1-96)”, in assay [1], the binding entry was “binds”.
As for “N-acetylglucosamine kinase (NAGK), endogenous in human cells (from UniProt Q9UJ70 1-344)”, in assay [2], the binding result is on record as “binds”.
For the substance “N-acetylglucosamine kinase (NAGK), endogenous in rat hippocampal neurons (from UniProt P81799 1-343)”, in assay [3], the binding entry is on record as “binds”.
With “dynein light-chain roadblock type 1 (DYNLRB1), endogenous in human cells (from UniProt Q9NP97 1-96)”, the binding entry in assay [1] was “binds”.

These data come from PMC10380243.
